Reference: PubChem BioAssay AID1487 (National Center for Advancing Translational Sciences (NCATS), 2009)
The other results are listed elsewhere or left out. The main result of the screen is listed elsewhere. These columns were measured beside it and carry no call. Most of these compounds were active or inconclusive in the main read-out, so they are no random draw. Potencies come from curve fits of mixed quality, noted in brackets.

Experiment: qHTS Assay for Modulators of Lamin A Splicing
Conditions: HeLa LMNA splicing GFP/RFP minigene ratio, 48 h
Outline: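 S3 HeLa cells stably expressing lamin A-EGFP splicing minigene plus DsRed2, 600 cells/well, 48 h compound exposure at 37C. Laser-scanning cytometry; analysed as GFP (500-530 nm)/RFP (575-640 nm) total intensity ratio; 0.5% DMSO vehicle.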

[1] = measured here: RFP viability control channel
[2] = measured here: GFP splicing reporter channel

Structure (SMILES)	AC50 [1]	AC50 [2]
CSc1ccc(CCNC(=O)c2ccc(-n3c(C)cc4c3CCCC4)cc2)cc1	12.6 µM [falling, partial curve, poor fit]	
C/C(=N\NC(=O)CNc1cccc(Cl)c1C)C1CC1	0.00891 µM [falling, full curve, poor fit]	
CC(=O)Nc1ccc(S(=O)(=O)N2CCN(CC3CC4C=CC3C4)CC2)cc1 (configuration not stated)	0.562 µM [falling, full curve]	0.316 µM [falling, full curve, poor fit]
Cc1[nH]n(-c2ccccc2)c(=O)c1/C=N/NC(=O)c1cccc([N+](=O)[O-])c1	5.62 µM [rising, single point]	5.62 µM [rising, single point]
O=C(COCc1cc(-c2ccc3c(c2)OCO3)on1)NCc1ccc(F)cc1	14.1 µM [rising, single point]	35.5 µM [rising, single point]
O=C(NCCn1cc(SCc2ccccc2)c2ccccc21)c1ccccc1F	20 µM [rising, single point]	
COc1cccc(-c2nc(=S)c3c(n2Cc2ccco2)CCCC3)c1		17.8 µM [rising, single point]
FC(F)(F)c1cccc(NC(=S)NCCN2CCOCC2)c1	0.316 µM [rising, single point]	0.0891 µM [rising, full curve, poor fit]
CC(C)c1cc(C(=O)OCC(=O)NC(=O)NCc2ccco2)c(O)c(C(C)C)c1	15.8 µM [falling, single point]	12.6 µM [falling, single point]
CSc1nc(N(C)NC(=O)c2ccc(F)cc2)c2ccccc2n1	4.47 µM [rising, partial curve]	
O=C(Nc1ccccc1C(=O)OCC(=O)c1c[nH]c2ccccc12)c1ccco1	11.2 µM [rising, partial curve]	
CCOC(=O)CCS(=O)(=O)c1nc(-c2ccccc2)cc(C(F)(F)F)n1	14.1 µM [rising, partial curve]	
Nc1nnnn1NCc1cccc(OCc2ccccc2)c1	25.1 µM [rising, single point]	17.8 µM [rising, partial curve, poor fit]
CCC(C)NC(=O)c1ccc2nc(Cc3ccccc3)oc2c1 (configuration not stated)	3.98 µM [falling, full curve, poor fit]	3.98 µM [falling, full curve]
COc1ccc(-c2nc3scc(CCNC(=O)Cc4ccc(F)cc4)n3n2)cc1		0.794 µM [rising, full curve, poor fit]

2 entries from above, with bars between the fields:
Structure (SMILES) | AC50 [1] | AC50 [2]
C/C(=N\NC(=O)CNc1cccc(Cl)c1C)C1CC1 | 0.00891 µM [falling, full curve, poor fit] | 
CCC(C)NC(=O)c1ccc2nc(Cc3ccccc3)oc2c1 (configuration not stated) | 3.98 µM [falling, full curve, poor fit] | 3.98 µM [falling, full curve]
